The record followed here is patent US20240150495A1.

These are yes or no findings as the source states them, for the method shown. Some binding calls cover weakened binding; strength is not graded here.

The assay concerns the target T1, synthetic peptide Rp10-L, a mimotope of B-cell molecular marker CD20.
T1 sequence (peptide): ITPWPHWLERSS
Description: ELISA screen on the CD20 mimotope peptide Rp10-L. In general terms: An ELISA detects its analyte on a solid surface through an enzyme-linked reagent.

B1: CH3 clone C50 (mutated human IgG1 CH3 domain, CH3+3 library) (designed binder, not shown: small tags and cut ends)
chain: MAPREPQVYTLPPSRDELLTHQVSLTCLVKGFYPSDIAVEWESNGQPENNYKTTPPVLDSDGSFFLYSKLTVALCRWFRGWVQGNVFSCSVMHEALHNHYTQKSLSLSPGKAAA
As to B1, the binding entry is “binds”.

B2: CH3 clone D5 (mutated human IgG1 CH3 domain, CH3+3 library) (designed binder, not shown: small tags and cut ends)
chain: MAPREPQVYTLPPSRDELALRQVSLTCLVKGFYPSDIAVEWESNGQPENNYKTTPPVLDSDGSFFLYSKLTVFCGGVVRWGLGNVFSCSVMHEALHNHYTQKSLSLSPGKAAA
Consider B2, for which the binding entry is reported as “binds”.
